From patent publication US20060100140A1, “Combination of a) n-{5-[4-(4-methyl-piperazino-methyl)-benzoylamido]2-methylphenyl}-4- (3-pyridyl)-2-pyrimidine-amine and b) a histone deacetylase inhibitor for the treatment of leukemia” (priority 2002, published 2006)

Tests used:
[1] = tested on: LAMA-S-571 (sensitive LAMA 84 cells); experiment: cells; details: Homo sapiens, LAMA-84, read-out: I.C.50 Compound I, sensitive LAMA 84 cells
[2] = tested on: LAMA-R-571 (LAMA 84-R cells); experiment: cells; details: Homo sapiens, LAMA-84, read-out: I.C.50 Compound I, Compound I-resistant LAMA 84 cells

In the case of Cc1ccc(NC(=O)c2ccc(CN3CCN(C)CC3)cc2)cc1Nc1nccc(-c2cccnc2)n1 [Compound I, N-{5-[4-(4-methyl-piperazino-methyl)-benzoylamido]-2-methylphenyl}-4-(3-pyridyl)-2-pyrimidine-amine], the IC50 [1] is reported as 300 nM and the IC50 [2] is reported as 1800 nM.
